The list shows a part of the results. Shown are side measurements of this screen, not its main read-out; they come without a call. The list favours compounds with an active or inconclusive main result. Potencies come from curve fits of mixed quality, noted in brackets.

A word on the AC50: it is the midpoint of the concentration-response curve, whichever way the signal moves.

A short description of this assay: qHTS Assay to Find Inhibitors of Chronic Active B-Cell Receptor Signaling. The settings on record: ABC-DLBCL IkBa-CBG/CBR reporter, luminescence ratio (green luciferase fused to IkBa over red control in TMD8 lymphoma cells), 4 h. Summed up: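 Doxycycline induced both beetle luciferases in TMD8 lymphoma cells; IKK-driven degradation limits the IkappaBalpha-fused green signal, while red luminescence normalises for cell number and nonspecific effects. Compounds tested up to 46 uM, 4 hrs.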
For orientation: Quantitative high-throughput screening tests each substance at several concentrations.

Setting [1] is: measured here: CBR red luminescence, cell number.
The mark [2] stands for this setting: measured here: IkBa-CBG green luminescence.

Regarding `CC(C)c1oc(=O)cc2c1[C@@H](O)[C@H]1OC(=O)[C@@]3(C)CC[C@@H](O)[C@@]2(C)C13` (stereo partly drawn), the half-maximal activity concentration (AC50) is 29.1 µM [falling, single point] under setting [1] and 2.91 µM [falling, partial curve, poor fit] under setting [2].

As for `Cc1cccc(-n2c(O)c(/C=N/Nc3nc4c(c(=O)n(C)c(=O)n4C)n3C)c(=O)[nH]c2=S)c1`, the AC50 under setting [1] was 29.1 µM [falling, single point].

`COC(=O)C1=C(c2cccc(OCc3ccccc3)c2)C[C@@H]2CC[C@H]1N2C(=O)NCCOc1ccc(OC)cc1`: the AC50 under setting [1] was 16.4 µM [falling, partial curve, poor fit].

On to `O=c1c2ccccc2nc(/C=C/c2ccc(F)cc2)n1-c1ccccn1`, for which the concentration at half-maximal activity (AC50) under setting [1] is 5.62 µM [rising, single point].

As to `O=c1c2ccccc2nc(-c2ccccc2)n1-c1ccncc1`, the AC50 under setting [1] was 29.1 µM [falling, single point].

`COC(=O)CSc1nc2cc(OC)ccc2cc1C#N`: the half-maximal activity concentration (AC50) under setting [1] was 0.631 µM [rising, full curve].

As to `CCC(=Nc1ccccc1NC(C)=O)c1c(O)n(C)c(=O)n(C)c1=O`, under setting [2], the half-maximal activity concentration (AC50) was 4.11 µM [rising, partial curve, poor fit].

On to `CC(C)N1C(=S)SC(C)(C)C1n1oc(=O)n(-c2ccc(Cl)c(Cl)c2)c1=O` (stereo not drawn), for which the half-maximal activity concentration (AC50) under setting [1] was 23.1 µM [falling, partial curve, poor fit].

As to `CN(C)C(=O)O/N=C(\N)COc1ccc(C(C)(C)C)cc1`, the AC50 under setting [1] is 31.6 µM [rising, single point].

`O=C1NC(=O)N(Cc2ccco2)C(=O)/C1=C/c1cccn1CCOc1ccccc1Cl`: the half-maximal activity concentration (AC50) under setting [1] was 20.6 µM [rising, single point].

Consider `COC(=O)C1=C(c2ccc(F)cc2OCc2ccccc2)C[C@@H]2CC[C@H]1N2C`, for which the half-maximal activity concentration (AC50) under setting [1] was 11.6 µM [falling, single point].

As to `COC(=O)C1=C(c2cccc3c2S(=O)(=O)c2ccccc2-3)C[C@@H]2CC[C@H]1N2C(=O)N1CCc2cc(OC)c(OC)cc2C1`, under setting [1], the AC50 was 10.3 µM [rising, partial curve].

For the compound `COc1cc(OC)cc(C(=O)Nc2ccc(Nc3ccccc3)cc2)c1`, the AC50 under setting [1] was 11.2 µM [falling, partial curve, poor fit].

`Cc1cc(/C=C2\C(=O)NC(=O)N(c3cccc(F)c3)C2=O)c(C)n1-c1cc(C(=O)O)cc(C(=O)O)c1`: the concentration at half-maximal activity (AC50) under setting [1] is 22.4 µM [falling, single point].

As for `O=Cc1cn(Cc2ccccc2F)c2ccccc12`, the AC50 under setting [1] is 0.562 µM [falling, partial curve, poor fit].

`N#CC1(c2ccccc2)CCN(C2CC(=O)N(c3ccc(F)cc3)C2=O)CC1` (stereo not drawn): under setting [1], the concentration at half-maximal activity (AC50) is 20 µM [rising, partial curve, poor fit].

Regarding `Cc1cccc(Cn2cccc(C(=O)Nc3ccc4c(c3)OCCO4)c2=O)c1`, the half-maximal activity concentration (AC50) was 15.8 µM [falling, single point] under setting [1] and 11.2 µM [rising, partial curve, poor fit] under setting [2].

For the compound `O=C(c1ccc(Cl)cc1)C12CN3CN(CN(C3)C1)C2`, the AC50 under setting [1] was 35.5 µM [rising, single point].

As to `Cc1ccccc1N1C(=O)NC(=O)/C(=C\c2cc(Br)c(N3CCOCC3)o2)C1=O`, under setting [1], the AC50 was 2.31 µM [rising, partial curve, poor fit].

As for `COC(=O)C1=C(c2ccc(F)cc2OCc2ccccc2)C[C@@H]2CC[C@H]1N2C(=O)NCCOc1ccccc1`, the AC50 under setting [1] was 32.6 µM [falling, single point].

Consider `CC(=O)[C@H]1CC[C@H]2[C@@H]3CC[C@H]4C[C@H](O)CC[C@]4(C)[C@H]3C(=O)C[C@]12C`, for which the AC50 under setting [1] was 18.4 µM [rising, single point].

As for `O=c1oc(-c2cccc(C(F)(F)F)c2)nn1-c1ccc(C(F)(F)F)cn1`, the AC50 under setting [1] is 2.51 µM [rising, full curve].

Consider `N=c1c2c(n(Cc3ccc(Cl)cc3Cl)c3c1CCC3)CCCC2`, for which the AC50 under setting [1] was 23.1 µM [falling, single point].

For the compound `C=C1C[C@@H]2[C@H](CC[C@]3(C)C(=O)CC[C@@H]23)[C@@]2(C)C=CC(=O)C=C12`, the AC50 under setting [1] was 3.16 µM [rising, single point].

As to `Oc1cc(O)cc(/C=C/c2ccc(O)cc2O)c1`, under setting [1], the AC50 was 18.4 µM [falling, partial curve, poor fit].

Take `Cc1cc(C(=O)O)c(C)n1C1CC1`: under setting [1], the half-maximal activity concentration (AC50) is 0.0891 µM [rising, full curve, poor fit].

As to `CNCCC(Oc1ccc(C(F)(F)F)cc1)c1ccccc1` (stereo not drawn), the AC50 under setting [1] was 15.8 µM [falling, single point].

In the case of `COC(=O)C1=C(c2ccc(OC(F)(F)F)cc2)C[C@@H]2CC[C@H]1N2C(=O)NCCOc1ccccc1Cl`, the concentration at half-maximal activity (AC50) under setting [1] is 20.6 µM [falling, single point].

Consider `CCC1C(C#N)=C(N)Oc2c1c(=O)oc1ccccc21` (stereo not drawn), for which the AC50 under setting [1] is 6.31 µM [rising, single point].

As to `CCc1ccc(N2C(=O)NC(=O)/C(=C/c3cccn3CCOc3ccc(C(C)CC)cc3)C2=O)cc1` (stereo not drawn), the half-maximal activity concentration (AC50) by setting is: under setting [1], 0.411 µM [rising, full curve, poor fit]; under setting [2], 23.1 µM [rising, partial curve, poor fit].

On to `COc1ccc(CCNCc2sccc2C)cc1OC`, for which, under setting [1], the AC50 was 20 µM [falling, partial curve, poor fit].

`COP(=O)(c1ccc(N(C)C)cc1)C(O)c1ccccc1` (stereo not drawn): the AC50 under setting [1] is 0.708 µM [rising, full curve, poor fit].

As for `Cc1ccccc1CC(=O)N(CCN(C)C)CC1CCCN(Cc2ccccc2F)C1` (stereo not drawn), under setting [1], the AC50 was 35.5 µM [falling, single point].

For `Nc1ncnc2c1ncn2[C@@H]1O[C@H](COP(=O)(O)OP(=O)(O)OP(=O)(O)O)[C@@H](O)[C@H]1O`, the half-maximal activity concentration (AC50) under setting [1] was 2.59 µM [rising, full curve].

Take `O=C(NCc1ccccc1)Nc1cccn(Cc2ccccc2Cl)c1=O`: under setting [1], the AC50 was 31.6 µM [falling, single point].

For the compound `Cc1ccc(N(C)C(=O)Oc2ccc(C(=O)c3ccc(Cl)cc3)cc2)cc1`, the AC50 under setting [1] is 16.4 µM [rising, partial curve].

As to `O=C1C2CCCN2C(c2cccnc2)N1c1cccc(Cl)c1` (stereo not drawn), the AC50 under setting [1] was 29.1 µM [falling, single point].

As for `O=C(CCN1CCCCC1)Nc1ccc(Cl)cc1C(=O)c1ccccc1`, the AC50 under setting [1] is 6.31 µM [falling, partial curve, poor fit].

With `CN1C(=O)C(Cc2cccc3ccccc23)C(=O)N(C)C1=O`, the AC50 under setting [1] is 0.259 µM [falling, full curve, poor fit].

Regarding `O=[N+]([O-])c1cc(Cl)c(O)c(-[n+]2c(-c3ccccc3)cc(-c3ccccc3)cc2-c2ccccc2)c1`, under setting [1], the AC50 was 11.2 µM [falling, partial curve].

Regarding `CCSc1nnc([C@@H](N)Cc2c[nH]c3ccccc23)o1`, the concentration at half-maximal activity (AC50) under setting [1] is 3.98 µM [rising, single point].

With `CCC(C)OC(=O)c1c(N)n(Cc2cccs2)c2nc3ccccc3nc12` (stereo not drawn), the concentration at half-maximal activity (AC50) reads like this: under setting [1], 1.3 µM [falling, partial curve, poor fit]; under setting [2], 3.26 µM [rising, partial curve, poor fit].

Regarding `COc1ccc2c(c1)NP(=S)(Oc1ccccc1)N2` (stereo not drawn), the AC50 under setting [1] was 4.47 µM [rising, partial curve, poor fit].

Consider `CCN1CCN(CCCNC(=O)c2ccc3c(Cl)c4c(nc3c2)CCCC4)CC1`, for which, under setting [1], the concentration at half-maximal activity (AC50) is 12.6 µM [falling, single point].

Turning to `OC1C2CN3CN(C2)CC1(c1ccccc1)C3` (stereo not drawn), under setting [1], the AC50 is 35.5 µM [rising, single point].

For the compound `COC(=O)C1=C(c2ccc(-c3ccccc3)c(F)c2)C[C@@H]2CC[C@H]1N2C(=O)N1CCC(C)CC1`, the AC50 under setting [1] was 3.26 µM [falling, partial curve, poor fit].

Regarding `CCOC(=O)C1(CCc2ccccc2)CCN(Cc2cccc3c2OCO3)CC1`, the AC50 under setting [1] was 20 µM [rising, partial curve, poor fit].

With `CC12CC[C@H]3[C@@H](CCC4(O)C[C@H](O)CCC34/C=N/NC(=O)c3ccccc3[N+](=O)[O-])C1(O)CCC2C1=CC(=O)OC1` (stereo partly drawn), the AC50 under setting [1] was 31.6 µM [rising, single point].

As for `CCN(CC)C(=O)Oc1ccc(Cl)c2ccccc12`, under setting [1], the half-maximal activity concentration (AC50) was 35.5 µM [rising, single point].

`CCCCn1c(N)c(N(CCOC)C(=O)CN2CC=C(c3ccccc3)CC2)c(=O)[nH]c1=O`: under setting [1], the half-maximal activity concentration (AC50) is 3.55 µM [falling, single point].

With `O=c1[nH]c2ccccc2nc1/C=C(\O)c1cccs1`, the concentration at half-maximal activity (AC50) under setting [1] is 2.51 µM [falling, full curve].

As to `CCOC(=O)C(O)(c1ccc(N(C)C(=O)c2ccc(Cl)c(Cl)c2)cc1)C(F)(F)F` (stereo not drawn), under setting [1], the concentration at half-maximal activity (AC50) was 18.4 µM [falling, single point].

`O=c1[nH]c(O)c(N=Nc2ccc3c(c2)OCCO3)c(=O)[nH]1`: the AC50 under setting [1] is 6.31 µM [falling, partial curve, poor fit].

As for `CC/C(=N\NC(=O)c1ccccc1)c1c(O)n(Cc2ccccc2)c(=O)[nH]c1=O`, the AC50 under setting [1] was 3.55 µM [falling, partial curve].

Turning to `O=C1NC(=O)[C@]2(Cc3ccccc3N3CCN(c4ccccc4)CC32)C(=O)N1Cc1ccccc1` (stereo partly drawn), under setting [1], the half-maximal activity concentration (AC50) is 7.08 µM [falling, partial curve].

On to `CCN1C(=O)N(CC)C(=O)C2(Cc3ccccc3N3CCN(c4ccccc4)CC32)C1=O` (stereo not drawn), for which, under setting [1], the concentration at half-maximal activity (AC50) is 4.47 µM [falling, partial curve].

`COc1cccc(OC)c1C1=NCC(=O)Nc2c1oc1ccc(Br)cc21`: the concentration at half-maximal activity (AC50) under setting [1] was 7.31 µM [rising, partial curve] and the concentration at half-maximal activity (AC50) under setting [2] is 11.6 µM [falling, partial curve].

For `COc1ccc(CNC(=O)Cn2c(=O)oc3cc(S(=O)(=O)NCc4ccccc4)ccc32)cc1`, the concentration at half-maximal activity (AC50) under setting [1] is 35.5 µM [rising, single point].
